Reference: PubChem BioAssay AID2662 (National Center for Advancing Translational Sciences (NCATS), 2010)
Among all 290,000 compounds or so, about 110 (0.038%) were called active. This list was built around the results that the source calls inconclusive (neither active nor inactive); the mix of calls is not that of the screen. Calls follow the shape of the dose curve; as a rule, active = well fitted inhibition curve with a large enough effect in the polarisation, with a control signal flat (not every such curve was filed as active); inconclusive = small, poorly fitted or top-dose-only effect, or effect the other way, or a change in a side signal; inactive = no such curve, though single readings can be large or run the other way; the % refers to the polarisation. Where the call is inconclusive, the potency comes from a doubtful curve fit. A note “side channel” means that the fit belongs to a control or component signal, not to the main read-out.

Protein sequences, listed by entry. Tags and fused reporters are not part of them.
UniProt Q03164, whole entry, looked up: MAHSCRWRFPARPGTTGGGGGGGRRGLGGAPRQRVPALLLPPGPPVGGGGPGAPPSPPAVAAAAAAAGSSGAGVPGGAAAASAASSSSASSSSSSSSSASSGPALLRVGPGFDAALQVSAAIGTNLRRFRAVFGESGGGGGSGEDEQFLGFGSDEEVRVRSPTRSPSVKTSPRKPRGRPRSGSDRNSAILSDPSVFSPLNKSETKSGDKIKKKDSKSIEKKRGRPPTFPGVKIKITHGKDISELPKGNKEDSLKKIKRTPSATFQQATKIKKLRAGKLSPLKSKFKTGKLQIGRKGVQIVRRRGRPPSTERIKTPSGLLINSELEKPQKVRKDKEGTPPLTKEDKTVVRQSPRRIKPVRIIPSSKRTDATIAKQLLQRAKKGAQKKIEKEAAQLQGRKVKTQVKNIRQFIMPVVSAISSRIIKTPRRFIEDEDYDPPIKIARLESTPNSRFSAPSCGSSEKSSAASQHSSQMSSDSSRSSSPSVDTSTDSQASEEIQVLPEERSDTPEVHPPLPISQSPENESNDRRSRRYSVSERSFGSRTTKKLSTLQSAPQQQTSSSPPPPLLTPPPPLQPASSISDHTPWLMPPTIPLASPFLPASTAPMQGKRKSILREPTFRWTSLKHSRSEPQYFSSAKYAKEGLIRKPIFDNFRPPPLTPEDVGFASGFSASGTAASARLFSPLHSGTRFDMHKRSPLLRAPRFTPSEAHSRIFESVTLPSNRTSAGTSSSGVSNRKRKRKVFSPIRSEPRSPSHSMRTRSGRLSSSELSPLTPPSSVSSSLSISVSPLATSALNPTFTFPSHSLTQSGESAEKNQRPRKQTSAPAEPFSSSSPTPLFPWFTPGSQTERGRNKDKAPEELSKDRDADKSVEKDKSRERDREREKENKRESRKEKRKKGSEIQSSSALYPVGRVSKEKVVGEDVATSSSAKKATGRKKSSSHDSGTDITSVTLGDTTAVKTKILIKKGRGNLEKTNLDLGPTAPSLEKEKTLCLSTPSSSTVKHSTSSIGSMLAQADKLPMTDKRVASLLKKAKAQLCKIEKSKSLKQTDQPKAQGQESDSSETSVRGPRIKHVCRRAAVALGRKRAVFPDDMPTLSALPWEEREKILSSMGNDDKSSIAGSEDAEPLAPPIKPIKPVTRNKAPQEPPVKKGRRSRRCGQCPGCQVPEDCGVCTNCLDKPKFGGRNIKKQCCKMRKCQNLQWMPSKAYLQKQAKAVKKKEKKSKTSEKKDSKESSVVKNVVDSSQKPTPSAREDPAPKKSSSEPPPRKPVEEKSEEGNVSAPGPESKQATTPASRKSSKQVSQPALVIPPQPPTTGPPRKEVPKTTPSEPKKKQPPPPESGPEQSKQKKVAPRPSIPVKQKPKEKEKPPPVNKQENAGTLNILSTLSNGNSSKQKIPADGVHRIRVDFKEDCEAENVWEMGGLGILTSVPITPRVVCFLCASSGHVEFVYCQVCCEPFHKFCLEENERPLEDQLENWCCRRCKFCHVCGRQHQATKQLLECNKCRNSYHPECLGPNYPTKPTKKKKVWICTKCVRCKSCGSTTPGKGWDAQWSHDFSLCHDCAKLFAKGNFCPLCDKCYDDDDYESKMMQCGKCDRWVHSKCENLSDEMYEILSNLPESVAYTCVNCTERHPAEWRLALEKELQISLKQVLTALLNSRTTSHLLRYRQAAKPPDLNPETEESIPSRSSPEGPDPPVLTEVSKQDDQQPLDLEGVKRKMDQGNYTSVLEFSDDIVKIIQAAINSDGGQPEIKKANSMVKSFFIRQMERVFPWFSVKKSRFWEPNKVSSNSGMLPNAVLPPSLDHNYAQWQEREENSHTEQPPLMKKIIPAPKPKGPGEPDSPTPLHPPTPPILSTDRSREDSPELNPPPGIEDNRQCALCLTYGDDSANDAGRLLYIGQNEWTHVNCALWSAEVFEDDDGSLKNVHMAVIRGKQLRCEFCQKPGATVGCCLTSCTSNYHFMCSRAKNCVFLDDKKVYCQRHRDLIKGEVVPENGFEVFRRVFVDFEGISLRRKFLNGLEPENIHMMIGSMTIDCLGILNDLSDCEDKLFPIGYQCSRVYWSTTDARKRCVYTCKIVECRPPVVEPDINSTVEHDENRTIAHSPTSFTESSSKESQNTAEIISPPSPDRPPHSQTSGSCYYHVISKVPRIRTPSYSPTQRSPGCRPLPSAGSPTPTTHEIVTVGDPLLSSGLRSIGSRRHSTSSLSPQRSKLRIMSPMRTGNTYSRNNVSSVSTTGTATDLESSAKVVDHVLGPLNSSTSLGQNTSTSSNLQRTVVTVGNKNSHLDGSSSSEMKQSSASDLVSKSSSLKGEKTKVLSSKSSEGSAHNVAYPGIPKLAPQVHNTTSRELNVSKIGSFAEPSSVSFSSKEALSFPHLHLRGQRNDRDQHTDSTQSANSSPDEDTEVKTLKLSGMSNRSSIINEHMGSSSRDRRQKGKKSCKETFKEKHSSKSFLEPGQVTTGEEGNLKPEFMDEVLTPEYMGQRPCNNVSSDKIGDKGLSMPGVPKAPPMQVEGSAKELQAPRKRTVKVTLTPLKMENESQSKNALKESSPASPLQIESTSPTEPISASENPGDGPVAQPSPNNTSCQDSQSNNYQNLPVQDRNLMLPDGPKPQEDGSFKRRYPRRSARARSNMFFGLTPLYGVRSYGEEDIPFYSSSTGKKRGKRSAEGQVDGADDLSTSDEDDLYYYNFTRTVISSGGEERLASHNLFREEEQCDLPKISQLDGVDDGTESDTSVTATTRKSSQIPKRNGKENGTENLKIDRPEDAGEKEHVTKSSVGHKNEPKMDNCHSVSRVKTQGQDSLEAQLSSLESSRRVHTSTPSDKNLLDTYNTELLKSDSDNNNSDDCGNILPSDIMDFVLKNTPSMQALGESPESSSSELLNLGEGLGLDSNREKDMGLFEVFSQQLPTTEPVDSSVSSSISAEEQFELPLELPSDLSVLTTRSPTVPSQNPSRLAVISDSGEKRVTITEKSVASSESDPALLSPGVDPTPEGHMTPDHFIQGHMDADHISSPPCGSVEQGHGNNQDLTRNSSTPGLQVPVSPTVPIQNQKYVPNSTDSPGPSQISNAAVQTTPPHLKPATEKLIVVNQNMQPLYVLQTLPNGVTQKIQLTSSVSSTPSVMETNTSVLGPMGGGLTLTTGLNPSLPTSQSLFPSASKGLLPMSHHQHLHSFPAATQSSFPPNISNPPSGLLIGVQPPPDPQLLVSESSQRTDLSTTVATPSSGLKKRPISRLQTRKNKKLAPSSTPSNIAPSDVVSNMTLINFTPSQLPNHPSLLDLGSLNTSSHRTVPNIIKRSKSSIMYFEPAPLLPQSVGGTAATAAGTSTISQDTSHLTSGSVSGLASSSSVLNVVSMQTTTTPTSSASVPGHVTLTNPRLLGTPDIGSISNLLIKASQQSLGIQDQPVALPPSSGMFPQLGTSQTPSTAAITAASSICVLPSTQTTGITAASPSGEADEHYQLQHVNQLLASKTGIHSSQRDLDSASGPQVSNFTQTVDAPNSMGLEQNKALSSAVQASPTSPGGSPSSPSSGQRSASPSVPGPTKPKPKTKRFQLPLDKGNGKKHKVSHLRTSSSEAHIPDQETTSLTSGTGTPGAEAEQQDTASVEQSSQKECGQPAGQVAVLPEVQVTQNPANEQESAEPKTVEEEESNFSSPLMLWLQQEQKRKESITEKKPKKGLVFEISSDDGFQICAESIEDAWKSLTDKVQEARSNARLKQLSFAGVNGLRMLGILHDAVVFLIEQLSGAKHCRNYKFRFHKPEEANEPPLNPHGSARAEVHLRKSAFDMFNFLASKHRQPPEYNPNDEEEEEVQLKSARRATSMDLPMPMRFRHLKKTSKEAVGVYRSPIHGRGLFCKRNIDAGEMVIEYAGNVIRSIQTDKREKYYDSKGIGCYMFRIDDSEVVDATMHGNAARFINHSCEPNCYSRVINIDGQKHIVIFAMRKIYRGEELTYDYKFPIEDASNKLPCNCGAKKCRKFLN

Target: Histone-lysine N-methyltransferase 2A (Homo sapiens) (UniProt Q03164)
Experiment: qHTS Fluorescence Polarization Assay for Inhibitors of MLL CXXC domain - DNA interaction
Conditions: MLL-CXXC / FITC-HOXA9 DNA fluorescence polarization; activity change, negative = inhibition: at 115 µM (top of the series)
Procedure, shortened: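 Steps: dispense CXXC domain solution (7 uM) → pin compounds or unlabeled HOX-A9 DNA control → 5 min ambient → add FLSN-HOX-A9 solution (50 nM) → spin → 30 min ambient → fluorescence polarization. Tris pH 7.5/NaCl/DTT/BSA buffer.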
Potency is read from the fitted curve at half-maximal effect.

**Q.** With `O=C(Nc1nc2ccccc2s1)c1cc(-c2ccco2)nc2ccccc12` as the compound, how does the “activity change, negative = inhibition” value read?
**A.** inactive: 24.1%

**Q.** `COc1cc(/C=C2\NC(=S)N(C)C2=O)ccc1O` was tested. Which Potency did it give?
**A.** inconclusive: 31.6 µM [fluorescent, side channel, partial curve]

**Q.** How did the Potency turn out when `CC(=Nc1ccc(C)cc1C)c1sc2ccccc2c1O` was run?
**A.** inconclusive: 35.5 µM [fluorescent, side channel, partial curve]

**Q.** How did the “activity change, negative = inhibition” value turn out when `COc1ccc(OC)c(NC2c3ncccc3C(=O)N2Cc2ccco2)c1` (stereo not drawn) was run?
**A.** inactive: -6.21%

**Q.** `COC(=O)c1ccc(Nc2nc(-c3ccncc3)nc3ccccc23)cc1` was tested. Which Potency did it give?
**A.** inconclusive: 56.2 µM [fluorescent, side channel, single point]

**Q.** For `O=C(NC(=S)N1CCc2ccccc21)c1ccco1`, which Potency is on record?
**A.** inconclusive: 89.1 µM [inhibitor, single point]

**Q.** How did the Potency turn out when `COc1ccc(-c2cnn3c(N)c(S(=O)(=O)c4ccccc4)cnc23)cc1` was run?
**A.** inconclusive: 1 µM [quencher, side channel, partial curve, poor fit]

**Q.** Which Potency does the source give for `CC(C)CCN1C(=O)c2ccc(C(=O)Nc3ccc(Br)cc3C(=O)O)cc2C1=O` here?
**A.** inconclusive: 7.08 µM [inhibitor, full curve]

**Q.** `COc1cccc(CNC(=S)Nc2ccc(Cl)cc2C)c1` was tested. Which “activity change, negative = inhibition” value did it give?
**A.** inactive: -10.7%

**Q.** With `Cc1ccc(CS(=O)(=O)c2ncc(Cl)c(C(=O)Nc3nnc(C(C)C)s3)n2)cc1` as the compound, how does the Potency read?
**A.** inconclusive: 35.5 µM [inhibitor, single point]

**Q.** `CCOc1ccc2nc(NC(=O)c3cccc(-c4cc5ccccc5oc4=O)c3)sc2c1` was tested. Which “activity change, negative = inhibition” value did it give?
**A.** inactive: 5.84%

**Q.** Which Potency does the source give for `CC1CN(S(=O)(=O)c2ccc(C(=O)Nc3ccc(S(=O)(=O)Nc4nccs4)cc3)cc2)CC(C)O1` (stereo not drawn) here?
**A.** inconclusive: 44.7 µM [inhibitor, single point]

**Q.** Which “activity change, negative = inhibition” value does the source give for `N#Cc1c(-c2ccccc2)cc(C2CC2)nc1SCC(=O)c1cccs1` here?
**A.** inactive: 7.15%

**Q.** How did the Potency turn out when `COc1cc(NC2CCCCC2O)c2nc(-c3ccc(Cl)cc3)ccc2c1` (stereo not drawn) was run?
**A.** inconclusive: 35.5 µM [fluorescent, side channel, partial curve]

**Q.** How did the Potency turn out when `O=C(CCN1C(=O)C2CCCCC2C1=O)NNC(=O)c1cccc(Cl)c1` (stereo not drawn) was run?
**A.** inconclusive: 10 µM [fluorescent, side channel, full curve]

**Q.** Which Potency does the source give for `Cc1c(N=Cc2c(O)n(Cc3ccco3)c(=O)c3ccccc23)c(=O)n(-c2ccccc2)n1C` here?
**A.** inconclusive: 89.1 µM [inhibitor, single point]

**Q.** Which Potency does the source give for `CSC1=N/C(=C\c2ccc(C)cc2)C(=O)S1` here?
**A.** inconclusive: 14.1 µM [inhibitor, single point]

**Q.** `CCN(CC)C1=CC2=CC(=C(C#N)C#N)CCC2CC1` (stereo not drawn) was tested. Which Potency did it give?
**A.** inconclusive: 7.08 µM [fluorescent, side channel, full curve, poor fit]

**Q.** For `O=C(N/N=C\c1cn(-c2ccccc2)nc1-c1ccccc1)c1ccc(Br)o1`, which “activity change, negative = inhibition” value is on record?
**A.** inactive: 21.5%

**Q.** `O=C1C2CCCN2C(c2cccc(Br)c2)N1c1ccc(F)cc1` (stereo not drawn) was tested. Which Potency did it give?
**A.** inconclusive: 15.8 µM [quencher, side channel, single point]

**Q.** How did the Potency turn out when `COc1cc2c(cc1O)[C@H](Cc1ccc(Oc3cc(C[C@@H]4NCCc5cc(OC)c(O)cc54)ccc3O)cc1)NCC2` was run?
**A.** inconclusive: 28.2 µM [quencher, side channel, partial curve]

**Q.** Which Potency does the source give for `COc1ccc(C(=O)c2c(N)sc3c2CCN(C)C3)cc1` here?
**A.** inconclusive: 70.8 µM [fluorescent, side channel, single point]

**Q.** How did the Potency turn out when `COC(=O)C(CC(=O)c1ccccc1)CC(=O)c1ccccc1` was run?
**A.** inconclusive: 44.7 µM [inhibitor, single point]

**Q.** `O=C(NCc1nc2ccccc2[nH]1)c1cccc(S(=O)(=O)N2CCCCC2)c1` was tested. Which Potency did it give?
**A.** inconclusive: 1.58 µM [quencher, side channel, full curve]

**Q.** `N=c1oc2cc(O)ccc2cc1C(=O)Nc1ccccn1` was tested. Which Potency did it give?
**A.** inconclusive: 63.1 µM [fluorescent, side channel, single point]

**Q.** For `COc1ccc(N2CCN(c3nc4ccccn4c(=O)c3C=O)CC2)cc1`, which Potency is on record?
**A.** inconclusive: 2 µM [fluorescent, side channel, full curve]

**Q.** `CCOC(=O)c1ccc2c(c1)n(CCO)c(C)[n+]2CC` was tested. Which “activity change, negative = inhibition” value did it give?
**A.** inactive: -3.5%

**Q.** `COc1ccc(C(=O)Nc2cc(C)nn2-c2cccc(F)c2)cc1OC` was tested. Which Potency did it give?
**A.** inconclusive: 11.2 µM [inhibitor, single point]

**Q.** Which Potency does the source give for `COC1=CC(=Cc2c(N)n3nc(CC(=O)N4CCOCC4)sc3nc2=O)C=C(OC)C1=O` here?
**A.** inconclusive: 3.55 µM [fluorescent, side channel, full curve]

**Q.** `COc1ccc(NS(=O)(=O)c2cccc(C(=O)NNC(=O)CNC(=O)c3cccc(C)c3)c2)cc1` was tested. Which Potency did it give?
**A.** inconclusive: 14.1 µM [fluorescent, side channel, single point]

**Q.** With `CCCNc1nc2c(c(=O)[nH]c(=O)n2C)n1CCOc1ccccc1` as the compound, how does the Potency read?
**A.** inconclusive: 70.8 µM [fluorescent, side channel, single point]

**Q.** `CCN(CC)CCNC(=O)c1c(C)n(-c2ccccc2)c2cc(Br)c(OC)cc12` was tested. Which Potency did it give?
**A.** inconclusive: 39.8 µM [quencher, side channel, partial curve]

**Q.** How did the Potency turn out when `COc1c(C)cc(C(=O)C2CCCN(C(=O)c3cccc(-n4cccn4)c3)C2)cc1C` (stereo not drawn) was run?
**A.** inconclusive: 44.7 µM [quencher, side channel, partial curve]

**Q.** How did the Potency turn out when `COC(=O)c1ccsc1NC(=O)c1ccco1` was run?
**A.** inconclusive: 89.1 µM [fluorescent, side channel, single point]

**Q.** For `CCOC(=O)COc1ccc2c(=O)c(-c3ccccc3OC)coc2c1`, which Potency is on record?
**A.** inconclusive: 1.58 µM [quencher, side channel, full curve]

**Q.** With `Cc1cc[n+](CC(=O)c2ccc(NC(=O)c3ccccc3)cc2)c2ccccc12` as the compound, how does the Potency read?
**A.** inconclusive: 56.2 µM [quencher, side channel, single point]

**Q.** Which Potency does the source give for `O=C(CCSc1ccccc1)NCCSCc1ccco1` here?
**A.** inconclusive: 17.8 µM [fluorescent, side channel, partial curve, poor fit]

**Q.** Which Potency does the source give for `CCOc1ccc(N(CC(=O)NCCSCc2ccco2)S(=O)(=O)c2ccc(C)cc2)cc1` here?
**A.** inconclusive: 12.6 µM [fluorescent, side channel, partial curve]
